# In the supplement of paper PMC12067093, “Discovery and optimisation of a covalent ligand for TRIM25 and its application to targeted protein ubiquitination” (Chemical Science, 2025):
# Sequences of proteins named here, by UniProt entry; tags and fusion partners are left off. A change or cut given only in a name is not applied to a line headed by its entry.
# UniProt Q15269: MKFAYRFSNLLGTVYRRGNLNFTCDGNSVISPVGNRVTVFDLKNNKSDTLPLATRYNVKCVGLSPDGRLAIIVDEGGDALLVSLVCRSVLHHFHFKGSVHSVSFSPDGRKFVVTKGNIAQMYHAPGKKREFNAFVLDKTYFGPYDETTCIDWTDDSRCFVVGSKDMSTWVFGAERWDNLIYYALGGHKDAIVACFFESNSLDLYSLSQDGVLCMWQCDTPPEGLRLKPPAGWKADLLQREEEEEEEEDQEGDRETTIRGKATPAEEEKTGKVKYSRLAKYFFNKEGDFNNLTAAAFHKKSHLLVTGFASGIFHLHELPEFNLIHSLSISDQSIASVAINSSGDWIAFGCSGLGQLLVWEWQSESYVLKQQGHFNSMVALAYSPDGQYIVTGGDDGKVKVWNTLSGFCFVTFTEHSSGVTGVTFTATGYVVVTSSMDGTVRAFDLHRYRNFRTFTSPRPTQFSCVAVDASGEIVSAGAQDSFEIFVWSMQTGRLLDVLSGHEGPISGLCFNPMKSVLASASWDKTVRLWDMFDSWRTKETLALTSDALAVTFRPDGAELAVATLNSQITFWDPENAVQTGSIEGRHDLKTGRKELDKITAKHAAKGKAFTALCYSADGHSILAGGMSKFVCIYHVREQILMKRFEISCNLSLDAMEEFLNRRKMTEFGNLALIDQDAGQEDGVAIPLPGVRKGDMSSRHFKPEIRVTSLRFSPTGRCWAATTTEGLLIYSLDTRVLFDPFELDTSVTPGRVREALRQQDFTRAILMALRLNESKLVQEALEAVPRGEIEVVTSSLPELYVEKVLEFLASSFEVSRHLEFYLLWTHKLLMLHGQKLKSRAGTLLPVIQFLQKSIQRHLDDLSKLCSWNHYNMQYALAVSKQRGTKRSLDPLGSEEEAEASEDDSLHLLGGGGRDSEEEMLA
# UniProt Q9Y4B4: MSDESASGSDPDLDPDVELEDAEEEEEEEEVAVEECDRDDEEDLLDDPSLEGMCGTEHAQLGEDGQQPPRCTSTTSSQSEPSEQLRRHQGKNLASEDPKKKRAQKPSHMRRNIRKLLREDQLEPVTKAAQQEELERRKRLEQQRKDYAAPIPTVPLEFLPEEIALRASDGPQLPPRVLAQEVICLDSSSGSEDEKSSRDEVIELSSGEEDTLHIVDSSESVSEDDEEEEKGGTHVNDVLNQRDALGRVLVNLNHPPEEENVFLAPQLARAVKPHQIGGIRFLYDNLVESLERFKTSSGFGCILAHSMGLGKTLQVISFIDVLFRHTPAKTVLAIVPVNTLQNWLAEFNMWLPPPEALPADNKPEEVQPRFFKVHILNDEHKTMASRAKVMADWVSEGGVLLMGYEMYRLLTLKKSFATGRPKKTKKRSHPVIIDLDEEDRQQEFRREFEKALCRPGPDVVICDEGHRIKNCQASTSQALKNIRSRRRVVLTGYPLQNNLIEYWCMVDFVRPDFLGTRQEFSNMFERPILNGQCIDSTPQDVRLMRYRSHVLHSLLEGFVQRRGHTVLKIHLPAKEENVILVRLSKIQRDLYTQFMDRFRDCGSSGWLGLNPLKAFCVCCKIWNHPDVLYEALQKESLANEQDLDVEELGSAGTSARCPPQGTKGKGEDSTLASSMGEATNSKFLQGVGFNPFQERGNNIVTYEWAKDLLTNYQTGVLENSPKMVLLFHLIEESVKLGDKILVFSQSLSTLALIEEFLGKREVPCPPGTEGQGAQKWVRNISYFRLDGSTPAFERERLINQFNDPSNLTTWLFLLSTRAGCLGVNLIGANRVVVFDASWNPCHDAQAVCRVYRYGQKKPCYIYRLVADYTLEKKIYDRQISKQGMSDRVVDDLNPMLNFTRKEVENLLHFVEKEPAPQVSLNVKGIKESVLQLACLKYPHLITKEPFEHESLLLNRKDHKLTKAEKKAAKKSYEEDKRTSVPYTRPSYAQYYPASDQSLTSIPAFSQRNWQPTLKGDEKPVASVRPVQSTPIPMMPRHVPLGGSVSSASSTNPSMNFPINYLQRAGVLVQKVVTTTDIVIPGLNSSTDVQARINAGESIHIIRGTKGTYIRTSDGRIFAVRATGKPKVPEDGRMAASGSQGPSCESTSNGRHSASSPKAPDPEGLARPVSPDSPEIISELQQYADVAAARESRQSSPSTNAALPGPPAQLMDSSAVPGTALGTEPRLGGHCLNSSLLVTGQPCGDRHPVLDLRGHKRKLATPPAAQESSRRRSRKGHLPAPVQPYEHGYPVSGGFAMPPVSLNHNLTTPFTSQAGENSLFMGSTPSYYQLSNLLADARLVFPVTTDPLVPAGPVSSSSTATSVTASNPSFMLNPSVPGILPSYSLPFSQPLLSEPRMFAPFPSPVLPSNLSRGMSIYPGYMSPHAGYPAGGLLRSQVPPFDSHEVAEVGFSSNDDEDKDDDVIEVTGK
# UniProt P11216: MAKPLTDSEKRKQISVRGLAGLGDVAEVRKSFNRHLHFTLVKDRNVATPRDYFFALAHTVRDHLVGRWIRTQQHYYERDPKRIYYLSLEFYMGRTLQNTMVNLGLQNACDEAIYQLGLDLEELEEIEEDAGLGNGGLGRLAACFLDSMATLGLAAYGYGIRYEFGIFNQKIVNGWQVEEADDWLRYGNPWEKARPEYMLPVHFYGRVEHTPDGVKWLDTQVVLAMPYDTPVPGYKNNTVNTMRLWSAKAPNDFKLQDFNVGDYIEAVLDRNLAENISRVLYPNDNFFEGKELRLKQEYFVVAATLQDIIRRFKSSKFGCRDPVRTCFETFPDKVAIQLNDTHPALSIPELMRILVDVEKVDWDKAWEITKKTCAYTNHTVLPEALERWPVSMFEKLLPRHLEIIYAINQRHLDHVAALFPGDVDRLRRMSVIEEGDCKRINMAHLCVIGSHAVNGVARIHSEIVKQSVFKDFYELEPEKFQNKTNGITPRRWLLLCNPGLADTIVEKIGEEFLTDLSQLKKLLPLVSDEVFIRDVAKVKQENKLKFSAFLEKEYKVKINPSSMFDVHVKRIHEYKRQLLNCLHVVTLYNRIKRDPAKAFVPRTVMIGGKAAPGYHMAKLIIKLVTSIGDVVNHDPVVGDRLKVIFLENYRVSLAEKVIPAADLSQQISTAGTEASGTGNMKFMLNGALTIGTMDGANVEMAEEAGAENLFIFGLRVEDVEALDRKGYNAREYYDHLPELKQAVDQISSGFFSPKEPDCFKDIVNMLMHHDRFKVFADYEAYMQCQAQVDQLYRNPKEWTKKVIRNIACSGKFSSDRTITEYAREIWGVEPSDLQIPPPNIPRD
# UniProt P51149, whole entry, looked up: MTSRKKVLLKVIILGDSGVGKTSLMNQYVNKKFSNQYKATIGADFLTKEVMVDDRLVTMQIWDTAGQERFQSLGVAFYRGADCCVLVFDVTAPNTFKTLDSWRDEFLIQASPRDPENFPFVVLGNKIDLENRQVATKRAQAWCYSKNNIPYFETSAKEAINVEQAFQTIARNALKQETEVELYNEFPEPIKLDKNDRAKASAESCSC
# UniProt Q15042: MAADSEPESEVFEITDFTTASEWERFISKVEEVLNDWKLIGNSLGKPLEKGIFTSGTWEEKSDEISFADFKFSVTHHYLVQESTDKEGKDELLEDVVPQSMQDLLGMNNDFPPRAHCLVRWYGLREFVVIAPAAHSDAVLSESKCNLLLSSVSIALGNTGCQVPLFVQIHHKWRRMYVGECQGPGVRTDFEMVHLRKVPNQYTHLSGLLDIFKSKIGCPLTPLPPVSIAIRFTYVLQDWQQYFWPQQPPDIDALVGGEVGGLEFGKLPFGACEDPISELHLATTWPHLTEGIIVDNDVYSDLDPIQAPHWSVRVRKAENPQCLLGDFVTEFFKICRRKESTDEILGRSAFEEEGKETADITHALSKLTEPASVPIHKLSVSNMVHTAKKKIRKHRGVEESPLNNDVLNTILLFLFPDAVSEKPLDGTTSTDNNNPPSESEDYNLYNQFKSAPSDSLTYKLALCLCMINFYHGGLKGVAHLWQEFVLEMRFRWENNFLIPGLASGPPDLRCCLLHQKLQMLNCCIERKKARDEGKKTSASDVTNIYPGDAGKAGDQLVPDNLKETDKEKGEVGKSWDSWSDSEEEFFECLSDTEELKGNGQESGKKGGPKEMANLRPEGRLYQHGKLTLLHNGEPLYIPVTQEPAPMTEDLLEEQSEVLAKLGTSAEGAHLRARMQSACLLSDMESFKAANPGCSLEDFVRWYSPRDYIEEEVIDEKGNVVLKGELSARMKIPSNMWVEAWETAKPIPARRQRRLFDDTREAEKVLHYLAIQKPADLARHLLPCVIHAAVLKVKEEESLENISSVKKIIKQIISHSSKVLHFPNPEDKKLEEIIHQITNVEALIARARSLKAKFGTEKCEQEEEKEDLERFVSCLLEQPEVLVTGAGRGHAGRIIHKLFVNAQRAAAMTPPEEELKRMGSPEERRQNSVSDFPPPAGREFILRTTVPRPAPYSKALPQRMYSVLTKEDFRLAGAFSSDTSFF
# UniProt Q14088: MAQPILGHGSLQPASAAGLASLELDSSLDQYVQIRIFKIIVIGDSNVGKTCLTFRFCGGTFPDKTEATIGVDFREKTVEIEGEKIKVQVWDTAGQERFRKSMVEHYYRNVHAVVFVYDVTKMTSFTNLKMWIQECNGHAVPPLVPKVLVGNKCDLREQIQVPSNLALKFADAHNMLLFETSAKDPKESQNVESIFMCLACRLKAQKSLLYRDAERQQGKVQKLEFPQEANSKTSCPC
# UniProt Q96PZ0: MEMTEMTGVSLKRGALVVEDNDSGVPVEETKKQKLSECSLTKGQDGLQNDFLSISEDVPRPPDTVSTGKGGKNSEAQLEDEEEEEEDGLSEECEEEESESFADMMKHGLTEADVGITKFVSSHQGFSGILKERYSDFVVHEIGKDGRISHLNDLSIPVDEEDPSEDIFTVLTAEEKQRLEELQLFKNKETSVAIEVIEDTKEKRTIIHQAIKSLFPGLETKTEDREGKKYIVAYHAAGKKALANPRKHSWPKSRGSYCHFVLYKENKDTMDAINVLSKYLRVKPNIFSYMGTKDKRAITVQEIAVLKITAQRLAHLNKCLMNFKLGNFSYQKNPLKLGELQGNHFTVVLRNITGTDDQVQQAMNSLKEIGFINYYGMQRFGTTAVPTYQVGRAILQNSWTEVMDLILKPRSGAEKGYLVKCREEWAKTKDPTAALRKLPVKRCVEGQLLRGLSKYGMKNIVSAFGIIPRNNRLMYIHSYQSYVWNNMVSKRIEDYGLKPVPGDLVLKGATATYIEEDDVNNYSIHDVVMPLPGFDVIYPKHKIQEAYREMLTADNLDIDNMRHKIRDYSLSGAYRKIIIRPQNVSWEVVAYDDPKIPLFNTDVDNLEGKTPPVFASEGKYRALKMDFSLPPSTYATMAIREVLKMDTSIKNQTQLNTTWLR
# UniProt Q9Y3T6: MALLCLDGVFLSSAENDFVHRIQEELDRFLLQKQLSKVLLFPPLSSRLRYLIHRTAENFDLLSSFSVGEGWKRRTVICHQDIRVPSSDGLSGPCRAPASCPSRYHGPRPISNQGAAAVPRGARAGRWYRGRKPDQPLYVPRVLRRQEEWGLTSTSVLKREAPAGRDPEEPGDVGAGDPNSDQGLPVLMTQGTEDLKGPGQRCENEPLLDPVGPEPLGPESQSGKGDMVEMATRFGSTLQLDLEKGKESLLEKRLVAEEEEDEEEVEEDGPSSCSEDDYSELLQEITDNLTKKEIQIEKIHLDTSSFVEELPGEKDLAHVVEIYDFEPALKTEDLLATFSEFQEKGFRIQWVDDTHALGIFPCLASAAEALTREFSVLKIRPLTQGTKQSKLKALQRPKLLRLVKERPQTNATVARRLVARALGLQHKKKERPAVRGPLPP
# This is one part of the list.
# Compound: Cc1cc(ccc1-c1ccccc1)C(=O)N1CCCN(CC1)C(=O)CCl [compound 10]
# Assay: probe-labelled cysteine peptide fold change vs DMSO (competition) (log2 fold change); higher = less target engagement (more negative = stronger competition)
# Details: THP-1, incubation time: 4 h
# 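Also: competitive profiling in live THP-1 cells: cysteine peptides tagged with an iodoacetamide desthiobiotin (IA-DTB) probe, intensity after compound treatment relative to DMSO-treated cells.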
target,measurement,setting,value
PWP2_Q15269_60_CVGLSPDGR (UniProt Q15269),probe-labelled cysteine peptide fold change,10 µM,0.0723
same,probe-labelled cysteine peptide fold change,50 µM,-0.164
RACK1_P63244_240_HLYTLDGGDIINALCFSPNR (UniProt P63244),probe-labelled cysteine peptide fold change,10 µM,0.11
same,probe-labelled cysteine peptide fold change,50 µM,0.249
RAB39A_Q14964_23_SCLLHR (UniProt Q14964),probe-labelled cysteine peptide fold change,10 µM,0.142
same,probe-labelled cysteine peptide fold change,50 µM,0.239
RAE1_P78406_93_AQQMHTGPVLDVCWSDDGSK (UniProt P78406),probe-labelled cysteine peptide fold change,10 µM,-0.171
same,probe-labelled cysteine peptide fold change,50 µM,-0.139
RAD54L2_Q9Y4B4_453_ALCRPGPDVVICDEGHR (UniProt Q9Y4B4),probe-labelled cysteine peptide fold change,10 µM,-0.126
same,probe-labelled cysteine peptide fold change,50 µM,0.141
QSOX1_O00391_512_ELCSACHNER (UniProt O00391),probe-labelled cysteine peptide fold change,10 µM,-0.11
same,probe-labelled cysteine peptide fold change,50 µM,-0.592
RAB8B_Q92930_123_CDMNDK (UniProt Q92930),probe-labelled cysteine peptide fold change,10 µM,-0.0137
same,probe-labelled cysteine peptide fold change,50 µM,0.218
PYGB_P11216_446_RINMAHLCVIGSHAVNGVAR (UniProt P11216),probe-labelled cysteine peptide fold change,10 µM,-0.0101
same,probe-labelled cysteine peptide fold change,50 µM,0.163
RAB35_Q15286_114_WLHEINQNCDDVCR (UniProt Q15286),probe-labelled cysteine peptide fold change,10 µM,0.125
same,probe-labelled cysteine peptide fold change,50 µM,-0.186
QTRT1_Q9BXR0_317_DFGPIDPECTCPTCQK (UniProt Q9BXR0),probe-labelled cysteine peptide fold change,10 µM,-0.0145
same,probe-labelled cysteine peptide fold change,50 µM,0.303
RAB3GAP2_Q9H2M9_395_HGESICLSPCNTLAAVTDDFGR (UniProt Q9H2M9),probe-labelled cysteine peptide fold change,10 µM,-0.00633
same,probe-labelled cysteine peptide fold change,50 µM,0.0791
RAD50_Q92878_1296_NIDQCSEIVK (UniProt Q92878),probe-labelled cysteine peptide fold change,10 µM,-0.0684
same,probe-labelled cysteine peptide fold change,50 µM,0.076
RAB7A_P51149_143_AQAWCYSK (UniProt P51149),probe-labelled cysteine peptide fold change,10 µM,-0.153
same,probe-labelled cysteine peptide fold change,50 µM,-0.0979
RAD21_O60216_585_TGAESISLLELCR (UniProt O60216),probe-labelled cysteine peptide fold change,10 µM,0.182
same,probe-labelled cysteine peptide fold change,50 µM,0.331
PXK_Q7Z7A4_252_KYCNPK (UniProt Q7Z7A4),probe-labelled cysteine peptide fold change,10 µM,-0.0663
same,probe-labelled cysteine peptide fold change,50 µM,-0.0773
RAB3GAP1_Q15042_783_HLLPCVIHAAVLK (UniProt Q15042),probe-labelled cysteine peptide fold change,10 µM,0.139
same,probe-labelled cysteine peptide fold change,50 µM,-0.223
RABGAP1L_Q5R372_139_LTYLGCMK (UniProt Q5R372),probe-labelled cysteine peptide fold change,10 µM,0.0897
same,probe-labelled cysteine peptide fold change,50 µM,0.0332
RAB3GAP1_Q15042_858_CEQEEEK (UniProt Q15042),probe-labelled cysteine peptide fold change,10 µM,-0.0888
same,probe-labelled cysteine peptide fold change,50 µM,0.245
UniProt Q6ZSR9_Q6ZSR9_251_GSCLESGGHSNDR,probe-labelled cysteine peptide fold change,10 µM,-0.161
same,probe-labelled cysteine peptide fold change,50 µM,-0.623
QRSL1_Q9H0R6_483_AFCDQQLLTVAK (UniProt Q9H0R6),probe-labelled cysteine peptide fold change,10 µM,0.104
same,probe-labelled cysteine peptide fold change,50 µM,0.0537
RAI14_Q9P0K7_139_TALHYAAAQGCLQAVQILCEHK (UniProt Q9P0K7),probe-labelled cysteine peptide fold change,10 µM,0.0635
same,probe-labelled cysteine peptide fold change,50 µM,-0.0217
PUS7L_Q9H0K6_561_VVQGDLVCLDEDIDDENFPNSK (UniProt Q9H0K6),probe-labelled cysteine peptide fold change,10 µM,-0.0134
same,probe-labelled cysteine peptide fold change,50 µM,-0.0822
RABGAP1L_Q5R372_554_AEVWQLLAGCHDNQAMLDR (UniProt Q5R372),probe-labelled cysteine peptide fold change,10 µM,0.0933
same,probe-labelled cysteine peptide fold change,50 µM,0.133
RABEPK_Q7Z6M1_36_VGHSCSYLPPVGNAK (UniProt Q7Z6M1),probe-labelled cysteine peptide fold change,10 µM,-0.218
same,probe-labelled cysteine peptide fold change,50 µM,-0.0672
RAB33A_Q14088_57_FCGGTFPDK (UniProt Q14088),probe-labelled cysteine peptide fold change,10 µM,0.194
same,probe-labelled cysteine peptide fold change,50 µM,0.43
RAB7A_P51149_84_GADCCVLVFDVTAPNTFK (UniProt P51149),probe-labelled cysteine peptide fold change,10 µM,0.0434
same,probe-labelled cysteine peptide fold change,50 µM,-0.0092
PYGL_P06737_581_QLLNCLHVITMYNR (UniProt P06737),probe-labelled cysteine peptide fold change,10 µM,0.0575
same,probe-labelled cysteine peptide fold change,50 µM,0.206
PUS7_Q96PZ0_258_GSYCHFVLYK (UniProt Q96PZ0),probe-labelled cysteine peptide fold change,10 µM,-0.0223
same,probe-labelled cysteine peptide fold change,50 µM,-0.0633
R3HCC1_Q9Y3T6_78_TVICHQDIR (UniProt Q9Y3T6+R3HCC1),probe-labelled cysteine peptide fold change,10 µM,-0.0761
same,probe-labelled cysteine peptide fold change,50 µM,-0.152
R3HCC1_Q9Y3T6_5_ALLCLDGVFLSSAENDFVHR (UniProt Q9Y3T6+R3HCC1),probe-labelled cysteine peptide fold change,10 µM,0.242
same,probe-labelled cysteine peptide fold change,50 µM,0.0812
RAD9A_Q99638_129+141_THNLSFQDCESLQAVFDPASCPHMLR (UniProt Q99638),probe-labelled cysteine peptide fold change,10 µM,-0.413
same,probe-labelled cysteine peptide fold change,50 µM,-0.127
QARS_P47897_657+665_GPSGCVESLEVTCR (UniProt P47897),probe-labelled cysteine peptide fold change,10 µM,-0.0476
same,probe-labelled cysteine peptide fold change,50 µM,-0.282
QKI_Q96PU8_119_QLEAETGCK (UniProt Q96PU8),probe-labelled cysteine peptide fold change,10 µM,0.162
same,probe-labelled cysteine peptide fold change,50 µM,0.159
PUS7_Q96PZ0_443_CVEGQLLR (UniProt Q96PZ0),probe-labelled cysteine peptide fold change,10 µM,-0.0651
same,probe-labelled cysteine peptide fold change,50 µM,-0.12
RAB3GAP1_Q15042_693_AANPGCSLEDFVR (UniProt Q15042),probe-labelled cysteine peptide fold change,10 µM,-0.0831
same,probe-labelled cysteine peptide fold change,50 µM,0.0258
PWP2_Q15269_863_LCSWNHYNMQYALAVSK (UniProt Q15269),probe-labelled cysteine peptide fold change,10 µM,-0.0585
same,probe-labelled cysteine peptide fold change,50 µM,0.512
RAB33A_Q14088_197_ESQNVESIFMCLACR (UniProt Q14088),probe-labelled cysteine peptide fold change,10 µM,0.0156
same,probe-labelled cysteine peptide fold change,50 µM,-0.365
R3HCC1L_Q7Z5L2_147_KVECLEVETTDVTGHER (UniProt Q7Z5L2),probe-labelled cysteine peptide fold change,10 µM,-0.167
same,probe-labelled cysteine peptide fold change,50 µM,0.116
RABL2A_Q9UBK7_128_EFRPEIPCIVVANK (UniProt Q9UBK7),probe-labelled cysteine peptide fold change,10 µM,0.0246
same,probe-labelled cysteine peptide fold change,50 µM,0.192

# Not a retest: entries from further up.
target,measurement,setting,value
PWP2_Q15269_60_CVGLSPDGR (UniProt Q15269),probe-labelled cysteine peptide fold change,10 µM,0.0723
same,probe-labelled cysteine peptide fold change,50 µM,-0.164
RACK1_P63244_240_HLYTLDGGDIINALCFSPNR (UniProt P63244),probe-labelled cysteine peptide fold change,10 µM,0.11
same,probe-labelled cysteine peptide fold change,50 µM,0.249
